{"source": "patent US20110312992A1", "about": "“Inhibitors of C-Kit and Uses Thereof” (priority 2006, published 2011)", "origin": "cited, not measured here", "system": "c-Kit D816 activation loop mutations", "details": "c-Kit D816 activation loop mutations of AML, systemic mastocytosis, seminoma; cited from earlier work", "note": "Counter-ions that a name gives are not always drawn.", "data": [{"smiles": "Cc1ccc(NC(=O)c2ccc(CN3CCN(C)CC3)cc2)cc1Nc1nccc(-c2cccnc2)n1", "note": "[imatinib mesylate, reference compound]", "values": [{"measurement": "IC50", "value": "5 to 10", "unit": "µM"}]}]}
